Results are given in words; binding and its absence hold for the method and conditions named. Binding seen in cells or lysates may run through a third protein. Some entries that bind do so weakly or less than the wild type.
Experiments:
[1] = target: Drp1-HA (Drosophila Drp1 with 3xHA tag) (Drosophila) (UniProt Q9VQE0); test: co-IP; S2 cells transfected with Drp1-HA and ROCK-Fg; lysates incubated with anti-HA antibody overnight at 4°C, protein A/G agarose beads; immunoblot with anti-Fg
[2] = target: ROCK-Fg (Drosophila Rho kinase with 3xFg tag) (Drosophila) (UniProt Q9VXE3); test: co-IP; S2 cells transfected with ROCK-Fg; co-IP performed using the newly generated antibody against Drosophila Drp1; endogenous Drp1

The chains behind the UniProt entries cited, without tags or fusion partners.
UniProt Q9VQE0: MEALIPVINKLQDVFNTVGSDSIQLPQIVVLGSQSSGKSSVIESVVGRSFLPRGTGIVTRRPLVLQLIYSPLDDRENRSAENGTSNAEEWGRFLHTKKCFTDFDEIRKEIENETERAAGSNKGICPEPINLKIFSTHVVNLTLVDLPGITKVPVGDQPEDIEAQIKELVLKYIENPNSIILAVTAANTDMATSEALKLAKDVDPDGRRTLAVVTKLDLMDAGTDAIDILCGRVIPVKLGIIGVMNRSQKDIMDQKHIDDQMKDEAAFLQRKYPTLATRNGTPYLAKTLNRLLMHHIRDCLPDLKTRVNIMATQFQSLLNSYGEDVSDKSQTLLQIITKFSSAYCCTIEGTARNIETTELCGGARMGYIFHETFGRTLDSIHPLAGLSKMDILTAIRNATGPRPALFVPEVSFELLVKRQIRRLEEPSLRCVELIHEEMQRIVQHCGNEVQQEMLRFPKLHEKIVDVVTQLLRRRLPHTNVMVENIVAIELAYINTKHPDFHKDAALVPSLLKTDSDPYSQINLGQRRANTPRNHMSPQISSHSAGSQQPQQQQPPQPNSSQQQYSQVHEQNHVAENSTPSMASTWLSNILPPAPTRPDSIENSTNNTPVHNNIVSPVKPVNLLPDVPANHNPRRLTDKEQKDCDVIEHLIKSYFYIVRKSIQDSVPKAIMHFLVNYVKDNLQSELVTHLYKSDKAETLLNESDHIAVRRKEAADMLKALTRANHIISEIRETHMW
UniProt Q9VXE3: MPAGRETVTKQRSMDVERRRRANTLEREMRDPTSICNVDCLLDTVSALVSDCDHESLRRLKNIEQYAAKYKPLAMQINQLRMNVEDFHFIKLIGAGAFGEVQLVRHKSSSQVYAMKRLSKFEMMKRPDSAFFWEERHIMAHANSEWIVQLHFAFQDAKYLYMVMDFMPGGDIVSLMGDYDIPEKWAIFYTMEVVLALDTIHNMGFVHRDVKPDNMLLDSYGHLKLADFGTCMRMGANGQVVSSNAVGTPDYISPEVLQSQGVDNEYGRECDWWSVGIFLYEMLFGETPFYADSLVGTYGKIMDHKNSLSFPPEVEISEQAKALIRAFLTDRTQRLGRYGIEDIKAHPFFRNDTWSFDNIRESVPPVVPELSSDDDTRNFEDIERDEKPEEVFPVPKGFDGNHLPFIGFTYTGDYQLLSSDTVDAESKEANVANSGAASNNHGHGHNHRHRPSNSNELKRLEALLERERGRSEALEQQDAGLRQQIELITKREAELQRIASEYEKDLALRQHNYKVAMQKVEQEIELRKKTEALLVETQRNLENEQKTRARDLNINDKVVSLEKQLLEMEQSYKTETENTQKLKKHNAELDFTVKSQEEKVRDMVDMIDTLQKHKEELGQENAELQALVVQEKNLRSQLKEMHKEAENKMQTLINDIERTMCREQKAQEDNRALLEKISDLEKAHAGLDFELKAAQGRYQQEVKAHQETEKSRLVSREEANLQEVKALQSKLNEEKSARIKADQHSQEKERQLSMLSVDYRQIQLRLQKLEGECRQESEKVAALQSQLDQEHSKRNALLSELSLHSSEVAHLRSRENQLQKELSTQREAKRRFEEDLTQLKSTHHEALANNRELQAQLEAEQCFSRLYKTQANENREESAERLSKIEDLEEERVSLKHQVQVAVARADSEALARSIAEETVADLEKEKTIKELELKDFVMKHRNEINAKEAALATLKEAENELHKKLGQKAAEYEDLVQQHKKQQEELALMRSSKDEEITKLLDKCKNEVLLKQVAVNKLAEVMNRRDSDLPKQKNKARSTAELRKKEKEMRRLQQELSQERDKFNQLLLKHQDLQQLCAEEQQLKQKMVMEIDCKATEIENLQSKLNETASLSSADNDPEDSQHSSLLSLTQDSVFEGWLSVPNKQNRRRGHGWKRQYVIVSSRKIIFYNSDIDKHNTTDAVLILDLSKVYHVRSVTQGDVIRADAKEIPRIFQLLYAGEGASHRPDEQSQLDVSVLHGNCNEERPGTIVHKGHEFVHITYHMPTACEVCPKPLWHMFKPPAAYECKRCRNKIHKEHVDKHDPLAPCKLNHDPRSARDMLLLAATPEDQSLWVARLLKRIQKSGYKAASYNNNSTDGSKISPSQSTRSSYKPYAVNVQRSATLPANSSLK

ROCK-Fg (Drosophila Rho kinase with 3xFg tag) (from UniProt Q9VXE3 1-1390) (enzyme)
binding [1]: binds

endogenous Drp1 (Drosophila dynamin-related protein 1) in S2 cells (from UniProt Q9VQE0 1-735)
binding [2]: binds
